## Primary screen of a compound library

Amino acid sequences for entries named in this document (tags omitted).
UniProt P9WFT3, whole entry: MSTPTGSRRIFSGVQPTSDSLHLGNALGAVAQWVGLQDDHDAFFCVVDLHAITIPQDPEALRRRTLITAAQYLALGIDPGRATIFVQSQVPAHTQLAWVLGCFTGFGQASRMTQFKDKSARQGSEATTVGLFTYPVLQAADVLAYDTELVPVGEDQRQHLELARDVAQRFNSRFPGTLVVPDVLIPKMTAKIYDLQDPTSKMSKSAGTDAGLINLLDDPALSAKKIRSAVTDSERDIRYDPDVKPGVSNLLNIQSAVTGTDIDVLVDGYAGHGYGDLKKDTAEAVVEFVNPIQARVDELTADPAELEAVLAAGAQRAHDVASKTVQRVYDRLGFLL
UniProt P9WPC5, whole entry: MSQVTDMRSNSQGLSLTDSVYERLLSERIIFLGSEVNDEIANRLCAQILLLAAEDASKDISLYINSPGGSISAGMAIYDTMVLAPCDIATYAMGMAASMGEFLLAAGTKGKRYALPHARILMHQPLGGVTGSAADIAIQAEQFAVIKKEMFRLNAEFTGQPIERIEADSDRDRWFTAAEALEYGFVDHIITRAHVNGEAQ
UniProt P9WPC3, whole entry partner: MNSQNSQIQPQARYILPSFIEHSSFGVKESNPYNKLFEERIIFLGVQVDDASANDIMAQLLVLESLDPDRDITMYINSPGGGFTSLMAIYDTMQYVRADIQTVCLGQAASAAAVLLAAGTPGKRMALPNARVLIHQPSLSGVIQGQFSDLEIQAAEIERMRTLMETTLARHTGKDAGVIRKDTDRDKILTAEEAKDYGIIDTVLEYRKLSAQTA

Measurements from “University of Dundee, Small-Polar-MMV Screening Library” (2021), ChEMBL document CHEMBL3988442.

A: 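Tryptophan-tRNA ligase, Mycobacterium tuberculosis (UniProt P9WFT3). Enzyme assay of tryptophanyl-tRNA synthetase; the read-out is not stated. Concentration: 10 µM. Higher most likely means stronger inhibition; the record gives no direction and few retests gave an IC50. Of about 65,000 compounds tested this way, about 64 (0.098%) reached 50% or more in at least one test.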
B: 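Protease assay of ClpP1P2, read by the AMC dye that it sets free. Target: ClpP1P2, Mycobacterium tuberculosis (UniProt P9WPC5 and UniProt P9WPC3). Compounds at 50 µM. Higher reads as stronger inhibition, judged from the few compounds that gave an IC50. Most other retested compounds had strongly negative values. About 69,000 compounds were tested under these conditions; 0.015% (about 10) showed 50% or more at least once.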

The filed quantity is “Percent Effect” (%). The controls that fix the scale are not given in the record; negative values are as filed. This is an unselected part of the compounds tested.

| SMILES | A | B |
|---|---|---|
| `O=C1CCC2(CCCN(C(=O)c3ccc[nH]3)C2)CN1Cc1cccnc1` (centres unmarked) | 3.936% | 5.998% |
| `CC(NC(=O)Nc1nccs1)c1ccc(S(C)(=O)=O)cc1` (centres unmarked) | -0.4955% | -0.6175% |
| `COc1c(Br)cccc1CCNC(=O)c1ccon1` | -0.8738% | -11.03% |
| `CCc1noc(CNc2c(F)cccc2-n2cccn2)n1` | 3.047% | 8.456% |
| `CN(C(=O)c1cc(F)ccc1F)[C@@H]1CC[C@@H](O)[C@@H]1O` | -0.8832% | 9.483% |
| `Cc1cc(CN(C)C(=O)C2CCCN(C(=O)c3ccc(Cl)cc3)C2)no1` (centres unmarked) | 1.574% | -8.606% |
| `CCOc1cc(CNC(=O)C(C#N)c2nc(C)cs2)ccc1OC(F)F` (centres unmarked) | -0.5146% | 3.636% |
| `CCN(Cc1cccc2c1OCO2)C(=O)C(C)c1cccnc1` (centres unmarked) | 2.274% | -2.922% |
| `Cc1nc(-c2ccccc2)ccc1C(=O)N1CCn2c(C)nnc2C1` | -6.174% | 1.328% |
| `CN(C)C(=O)N1CCC2(CCC(C(=O)N3CCCC3)O2)CC1` (centres unmarked) | -4.931% | -7.116% |
| `Cc1nc2ncnn2c2ccn(-c3cccnc3O)c(=O)c12` | -0.7273% | 3.343% |
| `CSCc1noc(CNC(=O)C2CCN(C3CCCCC3)CC2)n1` | 9.325% | 1.852% |
| `CN(CCCOc1ccccc1Cl)C(=O)CN1C(=O)CCNC1=O` | 2.585% | -21.47% |
| `CCc1noc(CNC2CCCN(Cc3noc(C4CC4)n3)C2)n1` (centres unmarked) | -1.881% | -32.62% |
| `Cn1cc(CCC(=O)N2CCCC(n3cncn3)C2)cn1` (centres unmarked) | -1.847% | -14.86% |
| `CC(C)N(C)Cc1cnc2n1CCN(C(=O)c1cccs1)C2` | -4.362% | -0.5832% |
| `Cc1ccsc1C(=O)N1CC(C(=O)NCC2CC2)C2(CCOCC2)C1` (centres unmarked) | -3.418% | -10.46% |
| `COCCC(=O)NCCc1nc(N(C)C)ncc1-c1ccncc1` | -7.292% | -7.472% |
| `O=C(Cc1ccc2c(c1)OCCCO2)Nc1nnn[nH]1` | 1.455% | -13.55% |
| `Cn1ncc2c(N3CC[C@H](O)C3)nc(-c3ccncc3)nc21` | 1.236% | -7.377% |
| `Cc1csc(C(C)(C)NCCOc2ccc(CC#N)cc2)n1` | 0.4468% | 10.78% |
| `CCN1CCN(CCNc2nc3ccc(C)cc3c(=O)n2C)CC1` | -3.023% | 0.7608% |
| `Cc1ccc(NC(=O)NC(C)Cn2cccn2)cc1` (centres unmarked) | -0.09234% | 3.89% |
| `Cc1ncc(C(=O)Nc2cncnc2N(C)C)c(Cl)c1Cl` | -3.431% | 4.31% |
| `O=C(C1CCOC1)N1CCC2(CCN(Cc3nccs3)CC2)CC1` (centres unmarked) | -0.382% | 9.709% |
| `CCS(=O)(=O)N1C[C@@H](c2nnc(C)o2)C[C@H]2OCC[C@H]21` | -1.647% | 1.075% |
| `N#Cc1ccnc(N2CCN(C(=O)NC3CCS(=O)(=O)C3)CC2)c1` (centres unmarked) | -2.43% | 13.49% |
| `COC(=O)CN(Cc1ccccc1C)C(=O)CCCNC(=O)C1CC1` | 5.206% | -1.497% |
| `CCc1cc(CN(C)C(=O)c2cc(=O)[nH]c(=O)[nH]2)on1` | -0.9025% | 6.53% |
| `CCOCC1CN(Cc2ccc(F)cc2)Cc2nn(C)cc21` (centres unmarked) | 0.3487% | -6.009% |
| `CNC(=O)c1cccc(NC(=O)Cn2nc(-c3cccs3)oc2=O)c1` | 0.8746% | -3.363% |
| `CCc1nc(C(=O)N2CC(C)CN(C)c3ccccc32)c[nH]1` (centres unmarked) | 5.556% | -5.457% |
| `Cc1ccc2[nH]c(C(=O)N3CCC4(CC3)C(=O)NCCN4C)nc2c1` | 2.738% | -9.166% |
| `COc1ccncc1NC(=O)c1[nH]nc(C(C)C)c1Br` | 2.926% | 7.426% |
| `Cc1cnn(CC2CCCN2C(=O)Cc2c(C)noc2Cl)c1` (centres unmarked) | 4.75% | 7.124% |
| `CCn1cc(C#N)c(=O)c2cc(Br)ccc21` | -0.07097% | -7.272% |
| `CC(C)(O)CN1CCN(C(=O)c2cccc3cccnc23)CC1` | -6.551% | -17.93% |
| `Cc1ccsc1CN1CC[C@H]2OCC[C@@]2(C(=O)N2CCCO2)C1` | 5.762% | 0.971% |
| `Cc1occc1C(=O)NCC(=O)NCCCOc1ccc(F)cc1` | -0.7947% | -4.75% |
| `Cn1cccc1C(=O)N1CC[C@@]2(O)CCN(S(C)(=O)=O)C[C@H]2C1` | 1.924% | -10.33% |
| `c1cncc(N2CCOCC3(CCCN(c4nncs4)C3)C2)c1` (centres unmarked) | -0.8629% | -9.193% |
| `CC(C)n1ncc2c1NC(=O)CSC2C(F)(F)F` (centres unmarked) | -0.6303% | -20.16% |
| `COc1ccc(CCN2CC(NCc3ncc[nH]3)CC2=O)cc1` (centres unmarked) | -4.348% | -15.54% |
| `c1ccc(CN2CCC(NCCc3ccc4c(c3)CCO4)CC2)nc1` | -0.4854% | -5.998% |
| `Cc1ccc(O)c(C(=O)N2CCCC2CC(=O)c2cnn(C)c2)c1` (centres unmarked) | 1.987% | -7.072% |
| `COc1ccc(CNC(C)Cn2cccn2)cc1OC` (centres unmarked) | 4.382% | 18% |
| `NC(=O)C1=NN2C(=NS(=O)(=O)c3ccccc32)N1` | -2.314% | -5.663% |
| `O=C(CCc1cc2n(n1)CCN(Cc1ccncc1)C2)N1CCCC1` | 0.9684% | -4.128% |
| `CCc1ccc(S(=O)(=O)Nc2ccn(CC(=O)OC)n2)cc1` | -4.513% | 6.362% |
| `CCS(=O)(=O)N1CCC2(CC1)CC[C@@]1(C(=O)N(C)C)CN(C)C[C@@H]21` | -0.9168% | 15.07% |
| `CCOC(=O)N[C@H]1C[C@@H](C(=O)NCCc2cccc(Cl)c2)N(C)C1` | 2.376% | -5.472% |
| `CN(C)c1ccc2c(c1)CN(C(=O)c1ccnnc1)C2c1cnco1` (centres unmarked) | 0.0969% | 0.4447% |

For reference, 6 entries once more:

For Cn1ncc2c(N3CC[C@H](O)C3)nc(-c3ccncc3)nc21 the result was A: 1.236%; B: -7.377%.
For CN(C)c1ccc2c(c1)CN(C(=O)c1ccnnc1)C2c1cnco1 (centres unmarked) the result was A: 0.0969%; B: 0.4447%.
For Cc1occc1C(=O)NCC(=O)NCCCOc1ccc(F)cc1 the result was A: -0.7947%; B: -4.75%.
For CN(C(=O)c1cc(F)ccc1F)[C@@H]1CC[C@@H](O)[C@@H]1O the result was A: -0.8832%; B: 9.483%.
For CC(C)N(C)Cc1cnc2n1CCN(C(=O)c1cccs1)C2 the result was A: -4.362%; B: -0.5832%.
For Cc1cc(CN(C)C(=O)C2CCCN(C(=O)c3ccc(Cl)cc3)C2)no1 (centres unmarked) the result was A: 1.574%; B: -8.606%.